This passage reports binding results from patent publication US6838550.

Results are given in words; binding and its absence hold for the method and conditions named. Some binding calls cover weakened binding; strength is not graded here.

The experiment deals with Gal4BD-DR3 (GAL4 DNA-binding domain fused to the intracellular domain of DR3) (UniProt P04386). Nature of the experiment: yeast two-hybrid, Gal4BD-DR3 bait against HeLa cDNA library.

B1: human SODD (Suppressor of Death Domain) polypeptide, SEQ ID NO:2 (protein)
chain: MSALRRSGYGPSDGPSYGRYYGPGGGDVPVHPPPPLYPLRPEPPQPPISWRVRGGGPAETTWLGEGGGGDGYYPSGGAWPEPGRAGGSHQEQPPYPSYNSNYWNSTARSRAPYPSTYPVRPELQGQSLNSYTNGAYGPTYPPGPGANTASYSGAYYAPGYTQTSYSTEVPSTYRSSGNSPTPVSRWIYPQQDCQTEAPPLRGQVPGYPPSQNPGMTLPHYPYGDGNRSVPQSGPTVRPQEDAWASPGAYGMGGRYPWPSSAPSAPPGNLYMTESTSPWPSSGSPQSPPSPPVQQPKDSSYPYSQSDQSMNRHNFPCSVHQYESSGTVNNDDSDLLDSQVQYSAEPQLYGNATSDHPNNQDQSSSLPEECVPSDESTPPSIKKIIHVLEKVQYLEQEVEEFVGKKTDKAYWLLEEMLTKELLELDSVETGGQDSVRQARKEAVCKIQAILEKLEKKGL
For B1, the binding result is recorded as “binds”.
